## Library screening results

Protein sequences, listed by entry. Tags and fused reporters are not part of them.
UniProt E9BF75, entry or part of it: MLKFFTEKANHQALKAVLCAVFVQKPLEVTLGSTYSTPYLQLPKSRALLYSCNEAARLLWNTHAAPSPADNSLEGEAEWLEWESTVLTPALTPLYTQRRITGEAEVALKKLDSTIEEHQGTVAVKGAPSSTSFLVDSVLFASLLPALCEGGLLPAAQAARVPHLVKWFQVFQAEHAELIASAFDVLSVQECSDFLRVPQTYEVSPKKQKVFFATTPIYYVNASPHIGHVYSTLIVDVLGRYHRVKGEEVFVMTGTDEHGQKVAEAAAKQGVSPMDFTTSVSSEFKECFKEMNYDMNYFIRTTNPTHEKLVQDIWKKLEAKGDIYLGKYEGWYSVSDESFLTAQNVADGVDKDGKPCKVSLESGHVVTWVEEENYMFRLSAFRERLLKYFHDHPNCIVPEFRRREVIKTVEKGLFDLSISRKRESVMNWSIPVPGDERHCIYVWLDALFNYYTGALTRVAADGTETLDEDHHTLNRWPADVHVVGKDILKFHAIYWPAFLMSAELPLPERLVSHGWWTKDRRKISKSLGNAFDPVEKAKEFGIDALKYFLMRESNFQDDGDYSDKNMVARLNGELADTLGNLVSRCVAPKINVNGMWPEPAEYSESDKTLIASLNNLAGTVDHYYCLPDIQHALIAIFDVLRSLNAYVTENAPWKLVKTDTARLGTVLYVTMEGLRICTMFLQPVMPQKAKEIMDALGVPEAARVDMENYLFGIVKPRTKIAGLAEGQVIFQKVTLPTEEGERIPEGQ

From ChEMBL document CHEMBL3988442, “University of Dundee, Small-Polar-MMV Screening Library” (2021).

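Methionyl-tRNA synthetase (putative), Leishmania donovani (UniProt E9BF75). Primary screen of methionyl-tRNA synthetase; the read-out is not stated. The test concentration is not given. The values are filed as inhibition. Size under these conditions: about 68,000 compounds, about 24 of them at 50% or above in at least one test.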

All values are in %. How 0% and 100% were set is not recorded. Most values in the screen are low, and negative values occur. This is an unselected part of the compounds tested.

| # | Compound | inhibition |
|---|---|---|
| 1 | `CC(C#N)CSc1ccccc1NCC(=O)NCc1cccs1` (stereo unspecified) | 6.522 |
| 2 | `O=C(Nc1ccc2c(ccn2CCN2CCOCC2)c1)c1ccccn1` | 15.14 |
| 3 | `CC(C)(C)c1n[nH]c(C2CN(C(=O)c3cc(C4CC4)[nH]n3)CCO2)n1` (stereo unspecified) | 12.58 |
| 4 | `CC(C)NC(=O)N1CCN2C(=O)N(Cc3ccc(F)cc3)C[C@H]2C1` | 4.945 |
| 5 | `Cc1cccc(N(C)S(=O)(=O)c2cc(C(=O)O)cs2)c1C` | 13.19 |
| 6 | `CCc1n[nH]c(C(=O)NCCn2ccc(C)n2)c1C` | 0 |
| 7 | `N#CCC(=O)NCc1nnc2n1CCN(Cc1nccs1)C2` | 5.797 |
| 8 | `CCN(CC)Cc1ccc(C(=O)N2CCCC2Cn2cccn2)o1` (stereo unspecified) | 11.11 |
| 9 | `CC(C)Nc1cccc(CC2CCN(S(C)(=O)=O)CC2)n1` | 1.935 |
| 10 | `COCCOc1ccc(NC(=O)N(CC2CCOC2)C2CC2)cn1` (stereo unspecified) | 18.39 |
| 11 | `CNS(=O)(=O)CCCNC(C)(C)c1nc(C)cs1` | 11.23 |
| 12 | `Cc1cc2cc(C(=O)N[C@@H]3CC[C@@H](N4CCCC4)[C@@H]3O)ccc2o1` | 8.235 |
| 13 | `O=C(CCCn1cncn1)NC1(c2ccccc2)CCC1` | 10.24 |
| 14 | `Cn1c(C(=O)N2CCc3[nH]cnc3C2C(=O)O)ccc1-c1ccccc1` (stereo unspecified) | 7.821 |
| 15 | `NC(=O)C1CCCN(c2ncnc3c2Cc2ccccc2OC3)C1` (stereo unspecified) | 6.03 |
| 16 | `O=C(Cc1csc(-c2ccoc2)n1)NCCCN1CCCCC1` | 6.859 |
| 17 | `Cc1cccnc1CN1CCC(c2nnc(Cn3cccn3)n2C)CC1` | 15.04 |
| 18 | `COc1ccccc1NCC(=O)NCc1scnc1C` | 11.96 |
| 19 | `c1ccc(-c2nc(CN3CCOC(Cn4cccn4)C3)no2)cc1` (stereo unspecified) | 13.29 |
| 20 | `Cc1noc([C@]23COC[C@H]2CN(C(=O)COC2CCCC2)C3)n1` | 9.87 |
| 21 | `O=C(c1ccc(F)cc1Cl)N1CCC(Nc2cccnn2)CC1` | 17.77 |
| 22 | `O=C(NCc1ccccn1)NC1CCCN(c2ncccn2)C1` (stereo unspecified) | 9.922 |
| 23 | `Cc1ccccc1[C@@H]1CN(C(=O)c2ccc3[nH]nnc3c2)C[C@H]1C(=O)O` | 14.5 |
| 24 | `CCn1cc(C(=O)NCc2csc(Br)c2)cn1` | 15.97 |
| 25 | `CC(C)Cc1nc(CN2CCc3onc(-c4cccc(F)c4)c3C2)no1` | 13.3 |
| 26 | `CC(C(=O)N1CCN(c2ccccc2Cl)CC1)n1cncn1` (stereo unspecified) | 13.89 |
| 27 | `Cc1ccc(S(=O)(=O)N(CCO)C2CC2)cc1N(C)C` | -4.749 |
| 28 | `CCS(=O)(=O)NCCCNc1cc(N2CCCC2CO)ncn1` (stereo unspecified) | 8.58 |
| 29 | `CC(C)CC(NC(=O)CSCC(N)=O)c1cccs1` (stereo unspecified) | 9.589 |
| 30 | `COC(=O)C(C)(C)NC(=O)c1cc(COc2ccccc2OC)[nH]n1` | 5.556 |
| 31 | `COc1cc2nc(NCc3ccc(C)nc3)nc(N)c2cc1OC` | 23.69 |
| 32 | `O=C(NCCn1ccc(-c2ccncc2)n1)C1CC1` | 12.93 |
| 33 | `O=C(NC1CCCC1)c1cnn2c(-c3ccco3)ccnc12` | 4.7 |
| 34 | `CC(C)OC(=O)NCc1ccc(NCc2cnn(C(C)(C)C)c2)cc1` | 9.657 |
| 35 | `Cc1ccc(CN2Cc3nccn3CC(Cn3cccn3)C2)s1` (stereo unspecified) | 14.55 |
| 36 | `COCCN(Cc1ccccn1)C(=O)c1ccc(=O)n(C)c1` | 5.279 |
| 37 | `O=C(O)[C@@H]1CN(C(=O)NCC2CCCCC2)C[C@H]1c1ccccn1` | 4.693 |
| 38 | `CNc1nc(C(=O)N2C[C@@H]3CCN(C)[C@@H]3C2)cs1` | 8.397 |
| 39 | `CC(C)c1nc(C(=O)N2CCCC(N)CC2)cs1` (stereo unspecified) | 8.273 |
| 40 | `CC(O)CN1CCN(C(=O)CN(C)c2cnccn2)CC1` (stereo unspecified) | 10.51 |
| 41 | `COCCC(=O)N1CCc2c(CNc3ncccn3)cncc2C1` | 9.63 |
| 42 | `Cc1ccccc1CSc1nc(N)cc(N2CCOC(C(N)=O)C2)n1` (stereo unspecified) | 18.22 |
| 43 | `O=C(C1CCCO1)N1CCC2(CC1)COCCN2CC1CC1` (stereo unspecified) | 11.86 |
| 44 | `c1cc(-c2c[nH]c([C@@H]3COCCN3C3CCCCC3)n2)ccn1` | 9.153 |
| 45 | `Cc1ccc(C(C)NC(=O)N2CCNC(=O)CC2)cc1F` (stereo unspecified) | 16.43 |
| 46 | `CC(=O)Nc1cc2c(cc1C)OCO2` | 5.516 |
| 47 | `Cc1nc(C)n(C2CCCN(C(=O)c3ccn(C(C)C)n3)C2)n1` (stereo unspecified) | 14.42 |
| 48 | `NC(=O)c1ccc(C(=O)N(Cc2ccc(O)cc2)CC2CC2)cc1` | 14.14 |
| 49 | `CC1CS(=O)(=O)CCN1Cc1ccccc1OCC(F)(F)F` (stereo unspecified) | 15.32 |
| 50 | `O=C(O)C(c1ccc2c(c1)OCO2)N1CCC(C(=O)N2CCCC2)CC1` (stereo unspecified) | 11.71 |
| 51 | `COCC1CN(Cc2cccnc2OC)Cc2cnn(C)c21` (stereo unspecified) | 11.35 |
| 52 | `Cc1cc(NC2CCc3nc(C(C)C)nn3C2)n2ncnc2n1` (stereo unspecified) | 17.96 |
| 53 | `C[C@@H]1CN(C(=O)c2cc(Cn3ccc4ccccc43)[nH]n2)C[C@H](C)O1` | 6.267 |
| 54 | `CCCn1cc(NC(=O)c2cccc(CN3CC[C@H](O)C3)c2)nn1` | 11.85 |
| 55 | `Cc1ccc(NC2CCN(C(=O)c3cccn3C)CC2)nn1` | 10.12 |
| 56 | `NS(=O)(=O)c1cnn(CC(=O)Nc2c(Cl)cccc2Cl)c1` | 28.12 |
| 57 | `COCC1CN(Cc2ccccn2)Cc2nn(C)cc21` (stereo unspecified) | 7.333 |
| 58 | `CCN1C(=O)CC[C@@H]2[C@H]1CCN2S(=O)(=O)Cc1ccc(C)cc1` | 15.62 |
| 59 | `CC(C)OC(=O)N1C[C@H]2CC[C@@H]1CN(Cc1cccnc1)C2` | 12.8 |
| 60 | `CC(C)NC(=O)N1CCN(CC2CC2)CC2(CNC(=O)C2)C1` (stereo unspecified) | 18.73 |
| 61 | `Cc1noc(Cl)c1CCC(=O)N1CCN(c2ccccc2)CC1` | -13.14 |
| 62 | `Cc1occc1C(=O)NC1CCN(C(=O)Nc2cccnc2)CC1` | 8.011 |
| 63 | `CCN1CC2(CC1=O)CN(C(=O)COC)CCN(S(C)(=O)=O)C2` (stereo unspecified) | 16.67 |
| 64 | `CCc1ncc(S(C)(=O)=O)c(C2CCCNC2)n1` (stereo unspecified) | 7.357 |
| 65 | `CCN1C(=O)CCCC12CCCN(C(=O)c1ccsc1)C2` (stereo unspecified) | 0.7246 |
| 66 | `Cc1cc(C2CCCCN2C(=O)CN2C(=O)OC(C)(C)C2=O)no1` (stereo unspecified) | 20.25 |
| 67 | `Cc1ccnc(C2CCN(C(=O)c3cnn(C)c3)C2)n1` (stereo unspecified) | 7.812 |
| 68 | `CC(C)(C)NC(=O)CNc1ncc(Br)cn1` | 13.73 |
| 69 | `Cc1nc(N2CCOCC2)nc(C)c1NS(=O)(=O)c1ccccc1` | 14.39 |
| 70 | `NC(=O)Nc1ccc(C(=O)NCCn2cccc2)cc1` | 6.46 |
| 71 | `CCCn1nnnc1CSc1nccn1CC` | 14.97 |
| 72 | `c1cnnc(N2CCCC(NCc3nc(-c4ccsc4)no3)C2)c1` (stereo unspecified) | 14.29 |
| 73 | `CN1CCC(CCNC(=O)N2CCN(Cc3ccon3)CC2)CC1` | -0.5305 |
| 74 | `CCC(=O)N1CCCC(c2ncc3c(n2)CCN(C)C3)C1` (stereo unspecified) | 11.53 |
| 75 | `CC(C)C(=O)NCCC(=O)N1CCN(c2ccccn2)CC1` | 23.1 |

The last 5 entries again:

* CCCn1nnnc1CSc1nccn1CC : 14.97%
* c1cnnc(N2CCCC(NCc3nc(-c4ccsc4)no3)C2)c1 (stereo unspecified) : 14.29%
* CN1CCC(CCNC(=O)N2CCN(Cc3ccon3)CC2)CC1 : -0.5305%
* CCC(=O)N1CCCC(c2ncc3c(n2)CCN(C)C3)C1 (stereo unspecified) : 11.53%
* CC(C)C(=O)NCCC(=O)N1CCN(c2ccccn2)CC1 : 23.1%